Laboratory results reported in the supplement of paper PMC7580552.
Where a name gives a salt, the structure may show the parent alone. The list shows a part of the results. Part of the spread comes from offsets between plates or batches.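 The strain is a K-12 laboratory model grown without shaking in 96-well plates, and biofilm is the crystal violet stain retained on the wells, read as absorbance. Drugs were picked as candidate specific biofilm blockers when they cut staining strongly but slowed free-floating growth by less than 70%.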

The compounds below were run on Escherichia coli W3110 (assay: biofilm formation (crystal violet staining) relative to untreated control; higher = more biofilm). Settings: 10 µM; 20-24 h; 30 °C; TB.

Structure (SMILES)	biofilm formation
NC[C@H]1O[C@H](O[C@H]2[C@H](O)[C@@H](O[C@H]3O[C@H](CO)[C@@H](O)[C@H](N)[C@H]3O)[C@H](N)C[C@@H]2N)[C@H](N)C[C@@H]1O [Tobramycin]	18%
C=CCOc1ccccc1OCC(O)CNC(C)C (centres undefined) [Oxprenolol hydrochloride]	68%
Cc1c(N)c(=O)n(-c2ccccc2)n1C [Ampyrone]	83%
CCOC(=O)/C=C(C)/C=C/C=C(C)/C=C/c1c(C)cc(OC)c(C)c1C [Etretinate]	91%
CC(C)[C@H](N)C(=O)OCCOCn1cnc2c(=O)nc(N)[nH]c21 [Valacyclovir hydrochloride]	81%
CN1CCN2c3ncccc3Cc3ccccc3C2C1 (centres undefined) [Mirtazapine]	96%
COC(=O)N/N=C/c1c[n+]([O-])c2ccccc2[n+]1[O-] [Carbadox]	76%
CN(C(=O)CN(CCO)CC(=O)N(C)C(C)(C)Cc1ccccc1)C(C)(C)Cc1ccccc1 [Oxethazaine]	80%
Cc1cc(C)nc(NS(=O)(=O)c2ccc(N)cc2)n1 [Sulfamethazine sodium salt]	37%
CC1(C)O[C@@H]2C[C@H]3[C@@H]4C[C@H](F)C5=CC(=O)C=C[C@]5(C)[C@@]4(F)[C@@H](O)C[C@]3(C)[C@]2(C(=O)CO)O1 [Fluocinolone acetonide]	82%
COc1cc(NS(=O)(=O)c2ccc(N)cc2)ncn1 [Sulfamonomethoxine]	29%
CC(C(O)c1ccc(O)cc1)N1CCC(Cc2ccccc2)CC1 (centres undefined) [Ifenprodil tartrate]	80%
COc1ccc(Cl)cc1C(=O)NCCc1ccc(S(=O)(=O)NC(=O)NC2CCCCC2)cc1 [Glibenclamide]	62%
Nc1nc(=O)n([C@@H]2CS[C@H](CO)O2)cc1F [(-)-Emtricitabine]	80%
CC#C[C@]1(O)CC[C@H]2[C@@H]3CCC4=CC(=O)CCC4=C3[C@@H](c3ccc(N(C)C)cc3)C[C@@]21C [Mifepristone]	51%
CCCOc1ccccc1-c1nc2[nH]nnc2c(=O)[nH]1 [Zaprinast]	50%
CCCCCCNC(=O)n1cc(F)c(=O)[nH]c1=O [Carmofur]	76%
Clc1ccc2nsnc2c1NC1=NCCN1 [Tizanidine hydrochloride]	77%
CC(C)Oc1ccc2c(=O)c(-c3ccccc3)coc2c1 [Ipriflavone]	109%
Cc1cc2cc3c(C)cc(=O)oc3c(C)c2o1 [Trioxsalen]	81%
CC(=O)Nc1nnc(S(N)(=O)=O)s1 [Acetazolamide]	81%
CCCCOc1cc(C(=O)OCCN(CC)CC)ccc1N [Benoxinate hydrochloride]	68%
C[C@]12CC[C@@H]3c4ccc(O)cc4C[C@@H](CCCCCCCCC[S+]([O-])CCCC(F)(F)C(F)(F)F)[C@H]3[C@@H]1CC[C@@H]2O (some centres undefined) [Fulvestrant]	69%
CO/N=C(\C(=O)N[C@@H]1C(=O)N2C(C(=O)O)=C(COC(C)=O)CS[C@H]12)c1csc(N)n1 [Cefotaxime sodium salt]	8%
CC(CNC1CCCCC1)OC(=O)c1ccccc1 (centres undefined) [Hexylcaine hydrochloride]	68%

In the list so far, 5 have a carbonyl joined to an NH by a bond outside any ring.
Structure (SMILES)	biofilm formation
COC(=O)N/N=C/c1c[n+]([O-])c2ccccc2[n+]1[O-] [Carbadox]	76%
COc1ccc(Cl)cc1C(=O)NCCc1ccc(S(=O)(=O)NC(=O)NC2CCCCC2)cc1 [Glibenclamide]	62%
CCCCCCNC(=O)n1cc(F)c(=O)[nH]c1=O [Carmofur]	76%
CC(=O)Nc1nnc(S(N)(=O)=O)s1 [Acetazolamide]	81%
CO/N=C(\C(=O)N[C@@H]1C(=O)N2C(C(=O)O)=C(COC(C)=O)CS[C@H]12)c1csc(N)n1 [Cefotaxime sodium salt]	8%

Continued.

Structure (SMILES)	biofilm formation
Nc1ccc(S(=O)(=O)Nc2nccs2)cc1 [Sulfathiazole]	29%
Cc1ccc(-c2cc(C(F)(F)F)nn2-c2ccc(S(N)(=O)=O)cc2)cc1 [Celecoxib]	65%
C[C@@H]1CCC[C@H](C)N1NC(=O)c1ccc(Cl)c(S(N)(=O)=O)c1 [Clopamide]	59%
CC[C@H]1OC(=O)[C@H](C)[C@@H](O[C@H]2C[C@@](C)(OC)[C@@H](O)[C@H](C)O2)[C@H](C)[C@@H](O[C@@H]2O[C@H](C)C[C@H](N(C)C)[C@H]2O)[C@](C)(O)C[C@@H](C)CN(C)[C@H](C)[C@@H](O)[C@]1(C)O [Azithromycin]	34%
CN[C@H]1CC[C@@H](c2ccc(Cl)c(Cl)c2)c2ccccc21 [Sertraline]	62%
CC(=O)Nc1c(I)c(C(=O)N[C@H]2C(O)O[C@H](CO)[C@@H](O)[C@@H]2O)c(I)c(N(C)C(C)=O)c1I (some centres undefined) [Metrizamide]	102%
CCN(CC)CCNC(=O)c1ccc(N)cc1 [Procainamide hydrochloride]	64%
CNCC(O)c1ccc(O)c(O)c1 (centres undefined) [Racepinephrine hydrochloride]	84%
CCOC1O[C@H]([C@@H](COCc2ccccc2)OCc2ccccc2)[C@H](OCc2ccccc2)[C@H]1O (some centres undefined) [Tribenoside]	76%
Cn1c(=O)c2c(ncn2CC2OCCO2)n(C)c1=O [Doxofylline]	80%
CN1CCN(CC(=O)N2c3ccccc3C(=O)Nc3cccnc32)CC1 [Pirenzepine dihydrochloride]	59%
CC(=O)N(CC(O)CO)c1c(I)c(C(=O)NCC(O)CO)c(I)c(C(=O)NCC(O)CO)c1I (centres undefined) [Iohexol]	86%
CN(CCCCCCCCCCN(C)C(=O)Oc1cccc([N+](C)(C)C)c1)C(=O)Oc1cccc([N+](C)(C)C)c1 [Demecarium bromide]	74%
COC(=O)Nc1nc2cc(Sc3ccccc3)ccc2[nH]1 [Fenbendazole]	87%
CN(C)CCC(c1ccc(Br)cc1)c1ccccn1 (centres undefined) [Brompheniramine maleate]	83%
O=C1CC[C@@H](C(=O)N2CSC[C@H]2C(=O)O)N1 [Pidotimod]	66%
c1ccc(-c2ccc(C(c3ccccc3)n3ccnc3)cc2)cc1 (centres undefined) [Bifonazole]	88%
Oc1c(Cl)cc(Cl)c2cccnc12 [Chloroxine]	2%
CC(=O)OC[C@H]1O[C@@H]([S-])[C@H](OC(C)=O)[C@@H](OC(C)=O)[C@@H]1OC(C)=O.CCP(CC)CC.[Au+] [Auranofin]	116%
CCCCc1oc2ccc(NS(C)(=O)=O)cc2c1C(=O)c1ccc(OCCCN(CCCC)CCCC)cc1 [Dronedarone hydrochloride]	79%
CCC1(c2ccccc2)C(=O)NCNC1=O [Primidone]	62%
Nc1ncnc2c1ncn2[C@@H]1O[C@H](CO)[C@@H](O)[C@@H]1O [Vidarabine]	62%
CCOc1nc2cccc(C(=O)O)c2n1Cc1ccc(-c2ccccc2-c2nnn[nH]2)cc1 [Candesartan]	82%
C[C@@](Cc1ccc(O)c(O)c1)(NN)C(=O)O [Carbidopa]	84%
CN(C)CCOC(c1ccccc1)c1ccccc1.Cn1c(=O)c2[nH]c(Cl)nc2n(C)c1=O [Dimenhydrinate]	60%

Structure (SMILES)	biofilm formation
CN(CCCN1c2ccccc2CCc2ccccc21)CC(=O)c1ccc(Cl)cc1 [Lofepramine]	71%
O=C1NCC2(CCN(CCc3ccccc3)CC2)O1 [Fenspiride hydrochloride]	67%
Clc1ccc2c(c1)CCc1cccnc1C2=C1CCNCC1 [Desloratadine]	66%
Cc1[nH]cnc1CN1CCc2c(c3ccccc3n2C)C1=O [Alosetron hydrochloride]	61%
CCCOc1ccc2[nH]c(NC(=O)OC)nc2c1 [Oxibendazol]	74%
O=C(c1ccc(F)cc1)C1CCN(CCn2c(=O)[nH]c3ccccc3c2=O)CC1 [Ketanserin tartrate hydrate]	73%
CCN(CC)C(=O)c1ccc(O)c(OC)c1 [Ethamivan]	94%
NCCCCCC(=O)O [Aminocaproic acid]	84%
CN(C)C(=N)NC(=N)N [Metformin hydrochloride]	86%
CC=CC(=O)N(CC)c1ccccc1C [Crotamiton]	84%
CNCCc1ccccn1 [Betahistine mesylate]	74%
Nc1nc2c(ncn2COC(CO)CO)c(=O)[nH]1 [Ganciclovir]	62%
CO[C@H]1/C=C/O[C@@]2(C)Oc3c(C)c(O)c4c(O)c(c5c(nc6cc(C)ccn65)c4c3C2=O)NC(=O)/C(C)=C\C=C\[C@H](C)[C@H](O)[C@@H](C)[C@@H](O)[C@@H](C)[C@H](OC(C)=O)[C@@H]1C [Rifaximin]	33%
O=C1[C@H]2CCCC[C@H]2C(=O)N1CCCCN1CCN(c2nsc3ccccc23)CC1 [Perospirone]	79%
Clc1cccc(Cl)c1NC1=NCCN1 [Clonidine hydrochloride]	61%
CC(=O)O[C@]1(C(C)=O)CC[C@H]2[C@@H]3C=C(Cl)C4=CC(=O)CC[C@]4(C)[C@H]3CC[C@@]21C [Chlormadinone acetate]	71%
CCCNC(=O)NS(=O)(=O)c1ccc(Cl)cc1 [Chlorpropamide]	54%
CCN(CC)C(C)CN1c2ccccc2Sc2ccccc21 (centres undefined) [Ethopropazine hydrochloride]	67%
Cc1cc(O)c(C(=O)N[C@@H](C(=O)N[C@@H]2C(=O)N3C(C(=O)O)=C(CSc4nnnn4C)CS[C@H]23)c2ccc(O)cc2)cn1 [Cefpiramide]	10%
OCCN1CCN(CC/C=C2/c3ccccc3Sc3ccc(Cl)cc32)CC1 [Zuclopenthixol dihydrochloride]	54%
Nc1nc(/C(=C/CC(=O)O)C(=O)N[C@@H]2C(=O)N3C(C(=O)O)=CCS[C@H]23)cs1 [Ceftibuten]	50%
Nc1ccc(/N=N/c2ccccc2)c(N)n1 [Phenazopyridine hydrochloride]	58%
CN(C)CCOC(=O)C(c1ccccc1)C1(O)CCCC1 (centres undefined) [Cyclopentolate hydrochloride]	85%
CCC(=O)O[C@]1(C(=O)SCF)[C@H](C)C[C@H]2[C@@H]3C[C@H](F)C4=CC(=O)C=C[C@]4(C)[C@@]3(F)[C@@H](O)C[C@@]21C [Fluticasone propionate]	67%

Copied from the list:
biofilm formation with Nc1nc2c(ncn2COC(CO)CO)c(=O)[nH]1 [Ganciclovir] is entered as 62%
biofilm formation with CC(=O)O[C@]1(C(C)=O)CC[C@H]2[C@@H]3C=C(Cl)C4=CC(=O)CC[C@]4(C)[C@H]3CC[C@@]21C [Chlormadinone acetate] is entered as 71%
